Test results reported in PMC11415397, “The Alpha-Synuclein Gene (SNCA) is a Genomic Target of Methyl-CpG Binding Protein 2 (MeCP2)—Implications for Parkinson’s Disease and Rett Syndrome”.

Amino acid sequences for entries named in this document (tags omitted). A change or cut given only in a name is not applied to a line headed by its entry.
UniProt P51608: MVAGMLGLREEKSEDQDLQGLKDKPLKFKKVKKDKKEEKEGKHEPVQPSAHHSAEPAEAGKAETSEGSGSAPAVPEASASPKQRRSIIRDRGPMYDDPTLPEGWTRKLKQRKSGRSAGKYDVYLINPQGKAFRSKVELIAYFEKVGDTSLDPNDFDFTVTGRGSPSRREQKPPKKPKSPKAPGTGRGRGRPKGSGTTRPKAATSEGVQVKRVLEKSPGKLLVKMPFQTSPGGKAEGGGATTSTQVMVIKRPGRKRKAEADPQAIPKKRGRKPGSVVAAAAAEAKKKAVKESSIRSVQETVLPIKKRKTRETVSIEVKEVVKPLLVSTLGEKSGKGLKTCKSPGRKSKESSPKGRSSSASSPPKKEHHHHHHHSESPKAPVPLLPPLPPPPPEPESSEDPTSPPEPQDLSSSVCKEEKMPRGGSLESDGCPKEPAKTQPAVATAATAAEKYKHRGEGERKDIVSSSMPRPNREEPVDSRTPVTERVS

Target: MeCP2 wild type (UniProt P51608)
Test: EMSA
Details: 10 mM Tris pH 7.5, 1 mM EDTA, 100 mM KCl, 100 uM DTT, 5% glycerol, 10 ug/ml BSA, 30 min room temperature, 50 fmol probe in 5 ul, MeCP2 30-75, recombinant protein, protein details: His, label: IRDye700 at 5' of LUEGO (S27)
[1] = shift only with methylated probe (legend: predominantly)

Does “GTGCCCTGGTCTGG / GCTGAGAGATTAGGCTGCTTCTCCGGGATCCGC / GCGGATCCCGGAGAAGCAGCCTAATCTCTCAGCCCAGACCAGGGCAC [SNCA intron 1 CpG2 probe, unmethylated]” bind [1]?
Result: no binding

Does “GTGCCCTGGTCTGG / GCTGAGAGATTAGGCTGCTTCTCCGGGATCCGC / GCGGATCCCGGAGAAGCAGCCTAATCTCTCAGCCCAGACCAGGGCAC [SNCA intron 1 CpG2 probe, methylated]” bind (weak or almost undetectable in titration, Fig S2 text reports increased binding at 50 nmol, CpG 5mC, in vitro methylated (enzyme for the probe not stated in EMSA section))?
Result: binds more weakly

Does “GTGCCCTGGTCTGG / CTGGCTTTCGTCCTGCTTCTGATATTCCCTTCTC / GAGAAGGGAATATCAGAAGCAGGACGAAAGCCAGCCAGACCAGGGCAC [SNCA intron 1 CpG1 probe, unmethylated]” bind [1]?
Result: no binding

For at least one entry, the source does not settle the construct or the ends of the probe. Negatives hold for the conditions tested. At least one verdict was read from the data and is not stated in words by the source. Weaker means in comparison with the reference protein, sequence or condition of that experiment.
